Measured values as given in the supplement of paper PMC6411743.
± gives the standard deviation of the averaged measurements. The entries are a selection whose mix differs from that of the whole data set.

Experiments:
Test in all cases: NP40-soluble protein abundance relative to vehicle (solubility fold change) (ratio); higher = more soluble protein in presence of ATP
RPS19BP1 = target: T1, RPS19BP1 (UniProt Q86WX3)
T1 sequence (whole entry): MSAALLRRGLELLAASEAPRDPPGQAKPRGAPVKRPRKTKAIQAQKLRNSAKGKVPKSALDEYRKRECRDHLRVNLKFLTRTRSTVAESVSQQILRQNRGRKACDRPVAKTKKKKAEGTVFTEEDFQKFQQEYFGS
Outline: (§1)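 Across three independent experiments, values are fold changes against the detergent-processed vehicle for each replicate, based on vsn-normalised intensities. The samples were Jurkat crude lysate treated with eight concentrations (0.1 to 10 mM) for 10 min at room temperature and then 3 min at 37 °C. Lysate was solubilised with 0.8% NP40 and benzonase, ultracentrifuged, and the supernatant analysed by TMT-labelled LC-MS/MS.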

SLFN11 = target: T2, SLFN11 (UniProt Q7Z7L1)
T2 sequence (whole entry): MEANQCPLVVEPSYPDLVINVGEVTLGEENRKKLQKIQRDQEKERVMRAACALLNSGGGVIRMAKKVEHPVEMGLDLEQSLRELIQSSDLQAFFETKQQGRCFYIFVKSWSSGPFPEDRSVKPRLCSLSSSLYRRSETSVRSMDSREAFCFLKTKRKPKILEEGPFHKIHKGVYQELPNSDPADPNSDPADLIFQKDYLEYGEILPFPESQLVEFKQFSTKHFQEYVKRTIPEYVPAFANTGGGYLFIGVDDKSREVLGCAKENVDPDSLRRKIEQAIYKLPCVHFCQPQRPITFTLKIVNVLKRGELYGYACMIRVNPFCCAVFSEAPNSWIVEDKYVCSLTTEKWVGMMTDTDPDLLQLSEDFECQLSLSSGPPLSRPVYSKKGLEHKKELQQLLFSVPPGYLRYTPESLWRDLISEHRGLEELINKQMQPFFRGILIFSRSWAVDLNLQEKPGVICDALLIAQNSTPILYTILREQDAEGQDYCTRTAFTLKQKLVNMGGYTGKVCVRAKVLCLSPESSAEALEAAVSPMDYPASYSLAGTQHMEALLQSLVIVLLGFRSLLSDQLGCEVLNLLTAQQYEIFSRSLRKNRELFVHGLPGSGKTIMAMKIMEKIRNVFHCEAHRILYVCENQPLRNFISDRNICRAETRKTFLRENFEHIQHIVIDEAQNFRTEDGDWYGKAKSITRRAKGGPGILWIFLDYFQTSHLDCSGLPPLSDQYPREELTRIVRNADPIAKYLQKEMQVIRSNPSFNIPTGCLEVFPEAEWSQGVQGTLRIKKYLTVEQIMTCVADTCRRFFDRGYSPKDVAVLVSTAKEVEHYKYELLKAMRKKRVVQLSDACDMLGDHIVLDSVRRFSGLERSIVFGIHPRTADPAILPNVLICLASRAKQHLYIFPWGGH
Outline: as §1

SPATS2 = target: T3, SPATS2 (UniProt Q86XZ4)
T3 sequence (whole entry): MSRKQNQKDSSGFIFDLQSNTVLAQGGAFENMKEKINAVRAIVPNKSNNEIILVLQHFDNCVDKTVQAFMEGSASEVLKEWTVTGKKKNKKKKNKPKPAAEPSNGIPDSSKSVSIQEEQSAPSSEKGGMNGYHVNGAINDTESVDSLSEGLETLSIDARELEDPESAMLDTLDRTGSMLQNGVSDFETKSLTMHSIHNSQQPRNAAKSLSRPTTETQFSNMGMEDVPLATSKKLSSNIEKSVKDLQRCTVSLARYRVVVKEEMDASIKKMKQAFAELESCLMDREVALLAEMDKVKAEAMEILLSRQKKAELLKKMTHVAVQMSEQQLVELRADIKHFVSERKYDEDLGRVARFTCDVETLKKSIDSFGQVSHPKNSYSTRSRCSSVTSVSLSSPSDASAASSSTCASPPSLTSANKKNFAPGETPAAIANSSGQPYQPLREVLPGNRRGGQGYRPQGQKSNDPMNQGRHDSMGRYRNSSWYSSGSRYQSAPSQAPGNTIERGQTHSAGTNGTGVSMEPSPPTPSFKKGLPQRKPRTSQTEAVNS
Outline: as §1

STX12 = target: T4, STX12 (UniProt Q86Y82)
T4 sequence (whole entry): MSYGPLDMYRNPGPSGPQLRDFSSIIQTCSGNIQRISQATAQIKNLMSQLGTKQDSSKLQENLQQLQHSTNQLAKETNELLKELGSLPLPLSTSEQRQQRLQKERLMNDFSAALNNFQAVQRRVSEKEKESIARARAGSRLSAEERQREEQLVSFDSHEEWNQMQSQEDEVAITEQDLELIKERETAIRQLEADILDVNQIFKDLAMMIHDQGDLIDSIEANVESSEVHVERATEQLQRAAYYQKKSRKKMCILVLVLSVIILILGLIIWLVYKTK
Outline: as §1

TBC1D10C = target: T5, TBC1D10C (UniProt Q8IV04)
T5 sequence (whole entry): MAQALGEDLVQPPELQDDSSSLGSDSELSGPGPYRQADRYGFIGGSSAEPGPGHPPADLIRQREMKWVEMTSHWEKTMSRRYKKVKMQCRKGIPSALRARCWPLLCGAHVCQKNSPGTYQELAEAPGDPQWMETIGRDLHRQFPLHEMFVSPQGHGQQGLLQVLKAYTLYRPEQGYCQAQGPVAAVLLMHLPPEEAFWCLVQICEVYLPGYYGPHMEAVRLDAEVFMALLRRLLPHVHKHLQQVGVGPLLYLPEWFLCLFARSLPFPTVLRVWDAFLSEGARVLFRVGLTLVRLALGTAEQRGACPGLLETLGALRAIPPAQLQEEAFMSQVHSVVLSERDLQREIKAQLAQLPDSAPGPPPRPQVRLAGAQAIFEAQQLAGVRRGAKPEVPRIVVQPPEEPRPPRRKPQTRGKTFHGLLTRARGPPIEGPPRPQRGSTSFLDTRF
Outline: as §1

For `Nc1ncnc2c1ncn2[C@@H]1O[C@H](COP(=O)(O)OP(=O)(O)OP(=O)(O)O)[C@@H](O)[C@H]1O` [adenosine triphosphate], which NP40-soluble protein abundance (RPS19BP1; concentration: 1mM) is on record?
The NP40-soluble protein abundance was 1.15 ± 0.033.

What about the NP40-soluble protein abundance (RPS19BP1; concentration: 2mM) of the same compound?
Its NP40-soluble protein abundance is 1.11 ± 0.12.

What about the NP40-soluble protein abundance (RPS19BP1; concentration: 4mM) of the same compound?
The NP40-soluble protein abundance was 1.12 ± 0.14.

What about the NP40-soluble protein abundance (RPS19BP1; concentration: 6mM) of the same compound?
The NP40-soluble protein abundance was 1.3 ± 0.081.

What about the NP40-soluble protein abundance (RPS19BP1; concentration: 8mM) of the same compound?
Its NP40-soluble protein abundance is 1.28 ± 0.11.

And the NP40-soluble protein abundance (RPS19BP1; concentration: 10mM)?
The NP40-soluble protein abundance was 1.42 ± 0.04.

What about the NP40-soluble protein abundance (SLFN11; concentration: 1mM) of the same compound?
The NP40-soluble protein abundance was 1.05 ± 0.11.

What about the NP40-soluble protein abundance (SLFN11; concentration: 2mM) of the same compound?
The NP40-soluble protein abundance was 1.04 ± 0.014.

And the NP40-soluble protein abundance (SLFN11; concentration: 4mM)?
The NP40-soluble protein abundance was 1.08 ± 0.064.

And the NP40-soluble protein abundance (SLFN11; concentration: 6mM)?
The NP40-soluble protein abundance was 1 ± 0.072.

What about the NP40-soluble protein abundance (SLFN11; concentration: 8mM) of the same compound?
The NP40-soluble protein abundance was 1.137 ± 0.0079.

And the NP40-soluble protein abundance (SLFN11; concentration: 10mM)?
Its NP40-soluble protein abundance is 1.12 ± 0.071.

What about the NP40-soluble protein abundance (SPATS2; concentration: 1mM) of the same compound?
Its NP40-soluble protein abundance is 1.09 ± 0.097.

What about the NP40-soluble protein abundance (SPATS2; concentration: 2mM) of the same compound?
The NP40-soluble protein abundance was 1.2 ± 0.1.

What about the NP40-soluble protein abundance (SPATS2; concentration: 4mM) of the same compound?
The NP40-soluble protein abundance was 1.2627 ± 0.0011.

What about the NP40-soluble protein abundance (SPATS2; concentration: 6mM) of the same compound?
The NP40-soluble protein abundance was 1.34 ± 0.025.

What about the NP40-soluble protein abundance (SPATS2; concentration: 8mM) of the same compound?
Its NP40-soluble protein abundance is 1.24 ± 0.027.

And the NP40-soluble protein abundance (SPATS2; concentration: 10mM)?
The NP40-soluble protein abundance was 1.3 ± 0.071.

And the NP40-soluble protein abundance (STX12; concentration: 1mM)?
The NP40-soluble protein abundance was 0.984 ± 0.056.

And the NP40-soluble protein abundance (STX12; concentration: 2mM)?
Its NP40-soluble protein abundance is 0.97 ± 0.018.

What about the NP40-soluble protein abundance (STX12; concentration: 4mM) of the same compound?
Its NP40-soluble protein abundance is 0.973 ± 0.028.

What about the NP40-soluble protein abundance (STX12; concentration: 6mM) of the same compound?
Its NP40-soluble protein abundance is 1.03 ± 0.044.

What about the NP40-soluble protein abundance (STX12; concentration: 8mM) of the same compound?
Its NP40-soluble protein abundance is 0.971 ± 0.047.

What about the NP40-soluble protein abundance (STX12; concentration: 10mM) of the same compound?
Its NP40-soluble protein abundance is 0.912 ± 0.086.

What about the NP40-soluble protein abundance (TBC1D10C; concentration: 1mM) of the same compound?
Its NP40-soluble protein abundance is 1.09 ± 0.2.

What about the NP40-soluble protein abundance (TBC1D10C; concentration: 2mM) of the same compound?
Its NP40-soluble protein abundance is 0.969 ± 0.19.

And the NP40-soluble protein abundance (TBC1D10C; concentration: 4mM)?
Its NP40-soluble protein abundance is 0.734 ± 0.12.

And the NP40-soluble protein abundance (TBC1D10C; concentration: 6mM)?
The NP40-soluble protein abundance was 0.971 ± 0.19.

And the NP40-soluble protein abundance (TBC1D10C; concentration: 8mM)?
The NP40-soluble protein abundance was 1.04 ± 0.15.

What about the NP40-soluble protein abundance (TBC1D10C; concentration: 10mM) of the same compound?
Its NP40-soluble protein abundance is 1.08 ± 0.14.
